Each structure is given as a SMILES string. Structures can show the parent of a compound that is named as a salt. ± gives the standard deviation of the averaged measurements. The list shows a part of the results.

The subject of this assay is APPdp1-6 iPSC-derived neurons. The experiment in a line: pThr231Tau/total Tau ratio Z-score vs DMSO vehicle wells; higher = more pThr231Tau relative to total Tau. The note with it: 5 µM; treatment time 5 days.
With `CC[C@H](C)[C@H](N)C1=N[C@H](C(=O)N[C@@H](CC(C)C)C(=O)N[C@H](CCC(=O)O)C(=O)N[C@H](C(=O)N[C@H]2CCCCNC(=O)[C@H](CC(N)=O)NC(=O)[C@@H](CC(=O)O)NC(=O)[C@H](Cc3cnc[nH]3)NC(=O)[C@@H](Cc3ccccc3)NC(=O)[C@H]([C@@H](C)CC)NC(=O)[C@@H](CCCN)NC2=O)[C@@H](C)CC)CS1` [Prestw-919], the “pThr231Tau/total Tau ratio Z-score” value turned out to be 0.0119 ± 0.74.

On to `CC[C@H](C)[C@H](N)C1=N[C@H](C(=O)N[C@@H](CC(C)C)C(=O)N[C@H](CCC(=O)O)C(=O)N[C@H](C(=O)N[C@H]2CCCCNC(=O)[C@H](CC(N)=O)NC(=O)[C@@H](CC(=O)O)NC(=O)[C@H](Cc3cnc[nH]3)NC(=O)[C@@H](Cc3ccccc3)NC(=O)[C@H]([C@@H](C)CC)NC(=O)[C@@H](CCCN)NC2=O)[C@@H](C)CC)CS1`, for which the “pThr231Tau/total Tau ratio Z-score” value came out at 0.627 ± 1.2. As for `CC(=O)NS(=O)(=O)c1ccc(NC(=O)c2ccccc2C(=O)O)cc1`, the “pThr231Tau/total Tau ratio Z-score” value was found to be 1.66 ± 1.9. Regarding `COc1ccc2c(c1OC)C(=O)O[C@@H]2[C@H]1c2c(cc3c(c2OC)OCO3)CCN1C` [NOSCAPINE HYDROCHLORIDE, antitussive], the “pThr231Tau/total Tau ratio Z-score” value came out at 0.607 ± 1.6. The result for `CC(=O)NCCCS(=O)(=O)O` [Prestw-1502] reads 1.57 ± 0.18. Take `CCOC(=O)O[C@]1(C(=O)COC(=O)CC)CC[C@H]2[C@@H]3CCC4=CC(=O)C=C[C@]4(C)[C@H]3[C@@H](O)C[C@@]21C` [Prestw-1044]: the “pThr231Tau/total Tau ratio Z-score” value came out at 1.81 ± 1.4.

For the compound `CC(C)(C)NCC(O)COc1cccc2c1CCC(=O)N2` (configuration not stated) [Prestw-446], the “pThr231Tau/total Tau ratio Z-score” value was -0.939 ± 0.085. Then `C[C@@H]1NC(=O)[C@@H](N)CNC(=O)[C@H](C2CCN=C(N)N2)NC(=O)/C(=C/NC(N)=O)NC(=O)[C@H](CNC(=O)CC(N)CCCN)NC1=O.NCCCC(N)CC(=O)NC[C@@H]1NC(=O)[C@H](CO)NC(=O)[C@@H](N)CNC(=O)[C@H](C2CCN=C(N)N2)NC(=O)/C(=C/NC(N)=O)NC1=O` (some centres not stated), with 0.835 ± 1; and `OC[C@H]1O[C@H](O[C@]2(CCl)O[C@H](CCl)[C@@H](O)[C@@H]2O)[C@H](O)[C@@H](O)[C@H]1Cl` [SUCRALOSE, sweetener], with 0.761 ± 1.2; and `COc1ccc2c(c1)c(CC(=O)O)c(C)n2C(=O)c1ccc(Cl)cc1` [Prestw-272], with -0.361 ± 0.84. The result for `Nc1nc2ccc(OC(F)(F)F)cc2s1` [Prestw-167] reads -0.843 ± 0.18; that for `C(=C\c1ccccc1)/CN1CCN(C(c2ccccc2)c2ccccc2)CC1` [Prestw-278], -1.08 ± 0.75. The result for `O=C(C1CCCCC1)N1CC(=O)N2CCc3ccccc3C2C1` (configuration not stated) [Prestw-260] reads 0.0753 ± 1.3; that for `Cc1ccc(NC(=O)c2ccc(CN3CCN(C)CC3)cc2)cc1Nc1nccc(-c2cccnc2)n1` [Prestw-1290], 0.361 ± 0.24; that for `CCOC(=O)COc1ccc2c(=O)cc(-c3ccccc3)oc2c1`, 0.62 ± 0.75. As for `CCCC1C(=O)N2C(N(C)C)=Nc3ccc(C)cc3N2C1=O` (configuration not stated) [Prestw-1003], the “pThr231Tau/total Tau ratio Z-score” value was found to be 1.16 ± 1.6. In the case of `Clc1ccc(C(Cn2ccnc2)OCc2ccsc2Cl)c(Cl)c1` (configuration not stated) [Prestw-1184], the “pThr231Tau/total Tau ratio Z-score” value is -1.18 ± 0.56. For the compound `C[C@](N)(Cc1ccc(O)c(O)c1)C(=O)O` [Prestw-326], the “pThr231Tau/total Tau ratio Z-score” value was -0.523 ± 1.1. Then `c1cnc(N2CCN(Cc3ccc4c(c3)OCO4)CC2)nc1` [Prestw-980], with -0.657 ± 0.64; and `C1CCC(C(CC2CCCCN2)C2CCCCC2)CC1` (configuration not stated) [Prestw-286], with -2.14 ± 1.2; and `CCc1nc(N)nc(N)c1-c1ccc(Cl)cc1` [Prestw-37], with -0.00774 ± 0.15. Then `CC(=O)[C@@]1(O)CC[C@H]2[C@@H]3C[C@H](C)C4=CC(=O)C=C[C@]4(C)[C@@]3(F)[C@@H](O)C[C@@]21C` [Prestw-718], with -0.473 ± 0.8; and `CC(C)NCC(O)COc1ccc(CCOCC2CC2)cc1` (configuration not stated) [Prestw-382], with 1.04 ± 1.1. Take `COc1cc(C(=O)NCc2ccc(OCCN(C)C)cc2)cc(OC)c1OC` [Prestw-80]: the “pThr231Tau/total Tau ratio Z-score” value is 0.252 ± 0.03. The result for `O=C(O)CCNC(=O)c1ccc(N=Nc2ccc(O)c(C(=O)O)c2)cc1` [Prestw-730] reads 0.251 ± 1.4; that for `Cc1cc(C(C)(C)C)c(O)c(C(C)(C)C)c1`, 0.876 ± 0.15. `COc1ccc(-c2cc(=S)ss2)cc1` [Prestw-1223]: the “pThr231Tau/total Tau ratio Z-score” value amounted to 0.046 ± 0.55. The result for `O=C(O)c1cn(C2CC2)c2cc(N3CCNCC3)c(F)cc2c1=O` [Prestw-113] reads 0.579 ± 0.6. The result for `COC(=O)Nc1nc2ccc(Sc3ccccc3)cc2[nH]1` [Prestw-210] reads -3.41 ± 0.85; that for `Nc1ccccc1S(N)(=O)=O` [Prestw-913], 4 ± 7.1; that for `COc1ccccc1Oc1c(NS(=O)(=O)c2ccc(C(C)(C)C)cc2)nc(-c2ncccn2)nc1OCCO` [Prestw-1244], -0.414 ± 0.71. Regarding `OCc1cccnc1` [NICOTINYL TARTRATE    Therap cat: vasodilator], the “pThr231Tau/total Tau ratio Z-score” value was determined as 1.37 ± 0.8.

On to `CN1CCC[C@@H]1Cc1c[nH]c2ccc(CCS(=O)(=O)c3ccccc3)cc12` [ELETRIPTAN HYDROBROMIDE, 5-HT agonist, anti-migrane], for which the “pThr231Tau/total Tau ratio Z-score” value was 0.462 ± 1.1.

In the case of `CC(C)[N+](C)(CCOC(=O)C1c2ccccc2Oc2ccccc21)C(C)C` [Prestw-827], the “pThr231Tau/total Tau ratio Z-score” value is 0.38 ± 1.8. For the compound `CCC[C@@H]1C[C@@H](C(=O)N[C@@H]([C@H]2O[C@H](SC)[C@H](O)[C@@H](O)[C@H]2O)[C@H](C)Cl)N(C)C1` [Prestw-137], the “pThr231Tau/total Tau ratio Z-score” value turned out to be 4.67 ± 0.32. The result for `O=C(N[C@H](CO)[C@H](O)c1ccc([N+](=O)[O-])cc1)C(Cl)Cl` [Prestw-31] reads 1.16 ± 0.24; that for `O=C(O)CCNC(=O)c1ccccc1`, 1.94 ± 2; that for `C[n+]1c2cc(N)ccc2cc2ccc(N)cc21`, -2.84 ± 1.4. Then `Cc1ccc2c(c1)c1c3n2CCNC3CCC1` (configuration not stated) [Prestw-973], with -0.413 ± 0.56; and `C=C1/C(=C\C=C2/CCC[C@]3(C)[C@@H]([C@H](C)CCCC(C)C)CC[C@@H]23)C[C@@H](O)C[C@@H]1O` [Prestw-1211], with -0.506 ± 0.69. As to `CCOc1ccc2ccccc2c1C(=O)N[C@@H]1C(=O)N2[C@@H]1SC(C)(C)[C@@H]2C(=O)O` [NAFCILLIN SODIUM    Therap cat:  Antibacterial], the “pThr231Tau/total Tau ratio Z-score” value was 0.905 ± 1.7. For the compound `CCOc1ccc2ccccc2c1C(=O)N[C@@H]1C(=O)N2[C@@H]1SC(C)(C)[C@@H]2C(=O)O` [Prestw-843], the “pThr231Tau/total Tau ratio Z-score” value is -0.977 ± 0.84. The result for `CC(C)(CO)C(O)C(=O)NCCCO` (configuration not stated) [Prestw-22] reads 0.588 ± 0.87; that for `CN(C)C/C=C(/c1ccc(Br)cc1)c1cccnc1` [Prestw-92], 1.55 ± 1; that for `CCN(CC)CCNC(=O)c1cc(Cl)c(N)cc1OC` [Prestw-209], 0.579 ± 0.43.

Turning to `CC1=NN(c2ccccc2)C(=O)C1`, the “pThr231Tau/total Tau ratio Z-score” value came out at 2.12 ± 1.7. Then `Cn1cnc2c1c(=O)[nH]c(=O)n2C` [Prestw-874], with -1.22 ± 0.5; and `Cc1c(-c2ccccc2)oc2c(C(=O)OCCN3CCCCC3)cccc2c1=O` [Prestw-242], with 0.817 ± 0.74; and `CCCCCCCCCCCCCCCCCCCCCCO` [DOCOSANOL, antiviral], with 0.893 ± 0.56. With `CN(N=O)C(=O)N[C@@H]1[C@@H](O)[C@H](O)[C@@H](CO)O[C@@H]1O` [Prestw-732], the “pThr231Tau/total Tau ratio Z-score” value is -0.79 ± 0.67.

Consider `NCCCC(=O)O` [Gamma-Aminobutyric acid], for which the “pThr231Tau/total Tau ratio Z-score” value amounted to 1.7 ± 0.12.

As to `O=C(OC1C[C@@H]2CC3C[C@H](C1)N2CC3=O)c1c[nH]c2ccccc12` (some centres not stated) [Prestw-1510], the “pThr231Tau/total Tau ratio Z-score” value was 0.253 ± 0.27.

With `CN[C@@H]1[C@@H](O[C@H]2O[C@H](CO)[C@@H](N)[C@H](O)[C@H]2O)OC2C[C@@H](N)[C@@H](O[C@H]3[C@H](O)[C@@H](O)[C@H](N)C[C@@H]3N)OC2[C@@H]1O` (some centres not stated) [Prestw-1005], the “pThr231Tau/total Tau ratio Z-score” value was found to be 0.402. As for `C#Cc1cccc(Nc2ncnc3cc(OCCOC)c(OCCOC)cc23)c1` [Prestw-1242], the “pThr231Tau/total Tau ratio Z-score” value is -1.74 ± 0.49. For `CN[C@@H]1[C@H](O[C@H]2[C@H](O[C@H]3[C@H](O)[C@@H](O)[C@H](N=C(N)N)[C@@H](O)[C@@H]3N=C(N)N)O[C@@H](C)[C@]2(O)CO)O[C@@H](CO)[C@H](O)[C@H]1O` [Prestw-159], the “pThr231Tau/total Tau ratio Z-score” value came to 0.347 ± 0.3.

Regarding `Cc1onc(-c2ccccc2Cl)c1C(=O)N[C@@H]1C(=O)N2[C@@H]1SC(C)(C)[C@@H]2C(=O)O` [Prestw-186], the “pThr231Tau/total Tau ratio Z-score” value is -0.166 ± 2.3. Then `N[C@@H](C(=O)N[C@@H]1C(=O)N2C(C(=O)O)=C(Cl)CC[C@H]12)c1ccccc1` [Prestw-1431], with -0.9929 ± 0.0025; and `NS(=O)(=O)c1cc2c(cc1Cl)NC=NS2(=O)=O` [Prestw-251], with -0.393 ± 0.52; and `N#Cc1ccc(C2CCCc3cncn32)cc1` (configuration not stated) [Prestw-1515], with -0.689 ± 0.046. Regarding `Nc1ccc(S(=O)(=O)[O-])cc1.Nc1ccc(S(=O)(=O)[O-])cc1.O.O.O.O.[Zn+2]` [SULFANILATE ZINC, antibacterial], the “pThr231Tau/total Tau ratio Z-score” value is 0.828 ± 1.1. With `CN[C@@H]1[C@H](O)[C@H](NC)[C@H]2O[C@@]3(O)C(=O)C[C@@H](C)O[C@H]3O[C@@H]2[C@H]1O` [Prestw-804], the “pThr231Tau/total Tau ratio Z-score” value is -0.794 ± 0.6. Then `NS(=O)(=O)c1cc2c(cc1Cl)NC(C(Cl)Cl)NS2(=O)=O` (configuration not stated) [Prestw-825], with 0.217 ± 0.55; and `C/C(=C(/CCO)SSCC1CCCO1)N(C=O)Cc1cnc(C)nc1N` (configuration not stated) [Prestw-1007], with 0.676 ± 0.43; and `CC(=O)O[C@H]1C(=O)[C@@]2(C)[C@H]([C@H](OC(=O)c3ccccc3)[C@]3(O)C[C@H](OC(=O)[C@H](O)[C@@H](NC(=O)c4ccccc4)c4ccccc4)C(C)=C1C3(C)C)[C@]1(OC(C)=O)CO[C@@H]1C[C@@H]2O` [Prestw-155], with -3.14 ± 0.46. On to `CCCN(CCC)CCc1cccc2c1CC(=O)N2` [Prestw-1158], for which the “pThr231Tau/total Tau ratio Z-score” value is -0.616 ± 0.76. Then `CSc1nc2cc(Cl)c(Oc3cccc(Cl)c3Cl)cc2[nH]1`, with -0.344 ± 0.88; and `Cc1nc2ccccn2c(=O)c1CCN1CCC(C(=O)c2ccc(F)cc2)CC1` [Prestw-531], with 1.99 ± 3.2. As to `O=C(CCNNC(=O)c1ccncc1)NCc1ccccc1` [Prestw-1099], the “pThr231Tau/total Tau ratio Z-score” value was 1.45 ± 0.52.

For `N/C(=N\C(=O)c1nc(Cl)c(N)nc1N)NCc1ccccc1` [Prestw-657], the “pThr231Tau/total Tau ratio Z-score” value is -0.0851 ± 0.37. The result for `NC(=O)c1cnccn1` [Prestw-514] reads 0.942 ± 0.44; that for `CC1(C)S[C@@H]2[C@H](NC(=O)[C@H](N)c3ccccc3)C(=O)N2[C@H]1C(=O)O` [Prestw-114], -1.31 ± 0.19.

For `O=C(O)c1cc(=O)[nH]c(=O)[nH]1` [Orotic acid], the “pThr231Tau/total Tau ratio Z-score” value is 1.47 ± 0.55.
